# Data as given in publication doi:10.1101/2023.04.19.537590.
# By UniProt entry, the sequences of proteins in these tests, tags left out.
# UniProt Q9BZL4: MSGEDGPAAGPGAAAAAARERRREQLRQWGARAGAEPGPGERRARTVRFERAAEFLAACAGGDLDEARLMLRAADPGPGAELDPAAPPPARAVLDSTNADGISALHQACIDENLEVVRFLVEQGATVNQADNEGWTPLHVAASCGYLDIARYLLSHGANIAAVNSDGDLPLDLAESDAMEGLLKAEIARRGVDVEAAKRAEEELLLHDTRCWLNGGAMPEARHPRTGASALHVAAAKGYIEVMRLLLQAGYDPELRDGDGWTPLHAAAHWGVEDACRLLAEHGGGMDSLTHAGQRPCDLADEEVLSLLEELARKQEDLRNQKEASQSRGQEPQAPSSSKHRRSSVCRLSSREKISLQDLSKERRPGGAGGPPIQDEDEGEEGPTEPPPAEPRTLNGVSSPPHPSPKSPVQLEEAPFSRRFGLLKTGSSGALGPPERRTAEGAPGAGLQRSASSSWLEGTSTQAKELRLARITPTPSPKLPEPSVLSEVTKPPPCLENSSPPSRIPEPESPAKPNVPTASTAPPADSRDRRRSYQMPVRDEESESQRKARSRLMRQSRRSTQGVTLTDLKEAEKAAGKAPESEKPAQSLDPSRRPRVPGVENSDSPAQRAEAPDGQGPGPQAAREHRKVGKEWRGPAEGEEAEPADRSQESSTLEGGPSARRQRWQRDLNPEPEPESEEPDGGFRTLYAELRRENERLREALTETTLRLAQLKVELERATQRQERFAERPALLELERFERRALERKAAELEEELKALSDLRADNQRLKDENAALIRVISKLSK
# Results are given in words; binding and its absence hold for the method and conditions named. Binding seen in cells or lysates may run through a third protein. Some binding calls cover weakened binding; strength is not graded here.
# T1: protein phosphatase 1 regulatory subunit 12C (in HL-1 cells) (mouse (endogenous in HL-1)) (UniProt Q3UMT1)
# T1 sequence: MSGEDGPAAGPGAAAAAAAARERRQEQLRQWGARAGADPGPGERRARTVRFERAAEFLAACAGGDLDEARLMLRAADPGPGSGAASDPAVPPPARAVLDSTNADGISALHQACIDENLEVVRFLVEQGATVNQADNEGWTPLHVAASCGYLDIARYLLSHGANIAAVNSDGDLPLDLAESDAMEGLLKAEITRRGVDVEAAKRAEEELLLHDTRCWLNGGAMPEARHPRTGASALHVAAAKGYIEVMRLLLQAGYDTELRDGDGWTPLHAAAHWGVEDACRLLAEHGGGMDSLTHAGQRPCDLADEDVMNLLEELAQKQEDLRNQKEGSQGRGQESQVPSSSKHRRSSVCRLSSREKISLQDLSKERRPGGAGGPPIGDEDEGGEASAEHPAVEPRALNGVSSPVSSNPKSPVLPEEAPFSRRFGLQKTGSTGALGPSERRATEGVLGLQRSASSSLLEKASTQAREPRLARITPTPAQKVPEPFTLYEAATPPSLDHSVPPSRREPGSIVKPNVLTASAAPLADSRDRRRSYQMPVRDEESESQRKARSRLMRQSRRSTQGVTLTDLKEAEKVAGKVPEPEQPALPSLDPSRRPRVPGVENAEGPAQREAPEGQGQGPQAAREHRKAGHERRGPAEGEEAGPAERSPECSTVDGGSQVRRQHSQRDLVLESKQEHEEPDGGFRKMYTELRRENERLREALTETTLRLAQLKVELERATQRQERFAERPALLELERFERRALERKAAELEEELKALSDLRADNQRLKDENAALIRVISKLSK
# What was measured:
# [1] = molecular target: protein phosphatase 1 regulatory subunit 12C (human (endogenous in right atrial appendage tissue)) (UniProt Q9BZL4); test: co-IP
# [2] = molecular target: T1, protein phosphatase 1 regulatory subunit 12C (in HL-1 cells) (mouse (endogenous in HL-1)); test: co-IP
binding [1],binding [2],Binder
binds,–,"atrial myosin light chain 2 (protein, UniProt Q01449 1-175) MASRKAGTRGKVAATKQAQRGSSNVFSMFEQAQIQEFKEAFSCIDQNRDGIICKADLRETYSQLGKVSVPEEELDAMLQEGKGPINFTVFLTLFGEKLNGTDPEEAILSAFRMFDPSGKGVVNKDEFKQLLLTQADKFSPAEVEQMFALTPMDLAGNIDYKSLCYIITHGDEKEE"
–,binds,"atrial myosin light chain 2 (in HL-1 cells) (protein, UniProt Q9QVP4 1-175) MASRKAGTRGKAAATKQAQRGSSNVFSMFEQAQIQEFKEAFSCIDQNRDGIICKSDLKETYSQLGRVSVPEEELDAMLQEGKGPINFTVFLTLFGEKLNGTDPEEAILSAFRMFDPSGQGVVNKEEFKQLLMTQADKFSPAEVEQLFALTPMDLAGNIDYKSLCYIITHGDEKEE"
